Measurements: publication PMC5442318, “Hundreds of dual-stage antimalarial molecules discovered by a functional gametocyte screen” (Nature Communications, 2017)

System: HepG2 cells
Assay: HepG2 cytotoxicity assay
Assay type: cell-based
Settings: HepG2 TOX50 / Pf FGAA IC50
Protocol: After incubation, plates and CellTiter-Glo Reagent (G7571, Promega) were equilibrated at room temperature for 30 min before proceeding to develop the luminescent signal. Using a Multidrop combi dispenser, 25 μl per well of the signal developer were added to the plates and after 10 min at room temperature for stabilization, plates were read on the ViewLux system (Perkin Elmer).

Row | Compound | Selectivity ratio
1 | CC(C)(CN)c1cc(-c2ccc(Cl)c(O)c2)c(-c2ccncc2)o1.Cl [TCMDC-141334] | 23.95
2 | Cc1cc(F)ccc1-c1nc(NCCCNCCc2ccccc2)nc2c1ccc(=O)n2-c1c(F)cccc1F.O=C(O)C(F)(F)F [TCMDC-141804] | 3.49
3 | Cl.O=S(=O)(Nc1cc2c(cc1OCCCN1CCCCC1)CCNCC2)c1ccc(-c2ccc(Cl)cc2)cc1 [TCMDC-141753] | 2.18
4 | CC1(CCN2CCC(c3c[nH]c4cnccc34)CC2)CCCc2c(Br)cccc2C1=O.Cl (stereo not drawn) [TCMDC-141171] | 3.03
5 | Cc1c(N=O)cc(C(C)(C)C)c(O)c1C(=O)Nc1ccc([N+](=O)[O-])cc1Cl [TCMDC-142233] | 1.51
6 | CN1CCN(c2ccc(Nc3ncc([N+](=O)[O-])c(Nc4ccccc4O)n3)cc2)CC1.O=C(O)C(F)(F)F [TCMDC-141372] | 0.91
7 | CN1CCN(CCCNc2ncc3c(-c4ccc(NC(=O)Nc5cc(C(F)(F)F)ccc5F)c(F)c4)nn(C)c3n2)CC1.O=C(O)C(F)(F)F [TCMDC-141611] | 5.61

Same assay, conditions: HepG2 TOX50 versus Pf FGAA IC50

Row | Compound | Selectivity ratio
8 | CC(C)(C)c1ccc(CN2CCC(CNC(=O)c3cc(-c4ccccc4C(F)(F)F)cs3)C2)cc1.O=C(O)C(F)(F)F (stereo not drawn) [TCMDC-134441] | 14.18
9 | c1ccc2sc(Sc3ncnc4sccc34)nc2c1 [TCMDC-125539] | >714.29
10 | CC(C)c1ccc(CN2CCC(CNC(=O)c3cc(-c4cccc(F)c4)cs3)C2)cc1.O=C(O)C(F)(F)F (stereo not drawn) [TCMDC-134437] | 4.56
11 | CN1CCCC1CCNCc1cccc(-c2cnc(N3CCCC(C)(C)C3)nc2)c1 (stereo not drawn) [TCMDC-133144] | 2.77
12 | O=C(O)C(F)(F)F.O=S(=O)(NCCN1CCCC1)c1ccc(-c2cccc(CNC3Cc4ccccc4C3)c2)s1 [TCMDC-132217] | 4.26
13 | O=C(c1ccc([N+](=O)[O-])o1)N1CCN(c2nc3c(F)cc(F)cc3s2)CC1 [TCMDC-125149] | >76.34
14 | CN(C)c1ccc(-c2csc(C(=O)NCC3CCN(Cc4cccc(C(F)(F)F)c4)C3)c2)cc1.O=C(O)C(F)(F)F (stereo not drawn) [TCMDC-134486] | 5.26
15 | CC(C)c1ccc(CN2CCC(CNC(=O)c3cc(-c4cccc(C(F)(F)F)c4)cs3)C2)cc1.O=C(O)C(F)(F)F (stereo not drawn) [TCMDC-134435] | 3.93
16 | COc1cc2nc(N3CCN(c4nc(N)c5cc(OC)c(OC)cc5n4)CC3)nc(N)c2cc1OC [TCMDC-123865] | 89.78
17 | O=C(O)C(F)(F)F.O=c1[nH]ccc2nc(N[C@@H]3CCNC3)nc(Nc3cc(Cl)cc(Cl)c3)c12 [TCMDC-135052] | 6.49
18 | COc1ccc(CCNCCCCCCNCCc2ccc(Cl)cc2)c(Cl)c1OC.Cl [TCMDC-131272] | 6.69
19 | c1ccc(-c2nc(NC3CCCCC3)cc(C3CC3)n2)nc1 [TCMDC-125825] | 307.80
20 | CCC(CSC1CCCCC1)N(C)CCN(C)C(CC)CSC1CCCCC1.Cl (stereo not drawn) [TCMDC-131456] | 0.05
21 | O=C(O)C(F)(F)F.O=S(=O)(NCCN1CCCC1)c1ccc(-c2ccc(CNC3Cc4ccccc4C3)cc2)s1 [TCMDC-132234] | 2.56
22 | CNCCCNCc1ccc(-c2ccc(F)c(Cl)c2)o1.Cl [TCMDC-125237] | 5.68
23 | CC(C)(C)Nc1cc(C2CC2)nc(-c2ccccn2)n1 [TCMDC-124453] | >1,000
24 | COc1ccc(-c2csc3ncnc(Cl)c23)cc1 [TCMDC-123805] | 0.38
25 | Cc1ccnc(NC(c2cccc(Cl)c2Cl)c2ccc3cccnc3c2O)c1 (stereo not drawn) [TCMDC-123997] | 23.97
26 | CN(CCc1ccccc1)c1ncc(-c2cccc(CNCCC3CCCN3C)c2)cn1 (stereo not drawn) [TCMDC-133143] | 2.13
27 | CC(C)C1=CC(=NOS(=O)(=O)c2ccccc2)C=C(C(C)C)C1=O [TCMDC-124172] | 24.74
28 | COc1ccc(CNC2CCN(C)CC2)cc1-c1ccc(S(=O)(=O)NCc2ccccc2)s1.O=C(O)C(F)(F)F [TCMDC-132253] | 3.13
29 | NCc1ccc(CNCc2ccc(-c3ccc(-c4nc5cc(C(F)(F)F)ccc5[nH]4)s3)cc2)cc1.O=C(O)C(F)(F)F [TCMDC-132814] | 8.12
30 | O=C(O)C(F)(F)F.O=S(=O)(NCCN1CCCC1)c1ccc(-c2cccc(CNC3Cc4ccccc4C3)c2)cc1 [TCMDC-132215] | 2.38
31 | NCCCNc1nc(Nc2ccc(C(F)(F)F)cc2F)c2c(=O)[nH]ccc2n1.O=C(O)C(F)(F)F [TCMDC-135056] | 5.83
32 | O=C(c1ccc([N+](=O)[O-])o1)N1CCC(Cc2ccc(C(F)(F)F)cc2)CC1 [TCMDC-124805] | 174.28
33 | COc1ccccc1C1CCN(C2CCC(NC(=O)c3ccc4[nH]c(-c5ccc(C)cc5)nc4c3)CC2)CC1 (stereo not drawn) [TCMDC-133556] | 1.60
34 | Br.CC(C)(Cc1ccc(Cl)cc1)NCCCCCCNCCc1ccc(O)c(O)c1 [TCMDC-131277] | 1.14
35 | NCc1ccc(CNCc2cccc(-c3ccc(-c4nc5cc(C(F)(F)F)ccc5[nH]4)cc3)c2)cc1.O=C(O)C(F)(F)F [TCMDC-132811] | 17.69
36 | CC(C)(C)c1cc(NC2CC2)nc(-c2ccccn2)n1 [TCMDC-125826] | >833.33
37 | Cc1cccc2nc(-c3ccc(-c4ccc(CNCc5ccc(CN)cc5)cc4)cc3)[nH]c12.O=C(O)C(F)(F)F [TCMDC-132813] | 8.37

Same assay, conditions: HepG2 TOX50 vs Pf FGAA IC50

Row | Compound | Selectivity ratio
38 | COc1ccc(Nc2nccc(-c3ccc4ccnc(NCCCCN)c4c3)n2)cc1 [TCMDC-136642] | 9.46
39 | CC(CO)(CO)NCc1cc2c3ccccc3c(CNC(C)(CO)CO)cc2c2ccccc12.CS(=O)(=O)O [TCMDC-137752] | 1.66
40 | CS(=O)(=O)O.FC(F)(F)COc1ccc2ccccc2c1CCNCCCCNCCc1c(OCC(F)(F)F)ccc2ccccc12 [TCMDC-137317] | 2.08
41 | Nc1ccc2[nH]cc(C3CCN(CC4CCN(C(=O)/C=C/c5ccc(Cl)c(Cl)c5)CC4)CC3)c2n1 [TCMDC-140061] | 3.33
42 | CN(C)CCNCc1ccc(-c2ccc3c(Nc4ccc(Cl)cc4F)ccnc3c2)o1 [TCMDC-138391] | 0.52
43 | CNCC(C)(C)c1nc(-c2ccc(Cl)c(O)c2)c(-c2ccncc2)[nH]1.Cl [TCMDC-140762] | 15.32
44 | CCCCOc1ccc(CNCCCCCCNCc2ccc(OCCCC)c3ccccc23)c2ccccc12.CS(=O)(=O)O [TCMDC-137281] | 5.69
45 | Cl.Nc1c2c(nc3ccc(NC(=O)CCCCCCc4ccccc4)cc13)CCCC2 [TCMDC-139056] | 2.28
46 | COc1ccc(CNCCCCCCNCc2ccc(OC)c3ccccc23)c2ccccc12.Cl [TCMDC-137631] | 2.52
47 | CCOc1cc2ccccc2cc1CNCCCCCCNCc1cc2ccccc2cc1OCC.CS(=O)(=O)O [TCMDC-137940] | 4.71
48 | C=CCC1OC(=O)c2cc(OC)cc(OC)c21 (stereo not drawn) [TCMDC-138677] | 6.36
49 | COc1cc2ccccc2cc1CCNCCCCNCCc1cc2ccccc2cc1OC.CS(=O)(=O)O [TCMDC-137944] | 2.69
50 | COc1ccc2c(c1)CC(C)(C)NC2CCCCCCCCC1NC(C)(C)Cc2cc(OC)ccc21.O=C(O)C(=O)O (stereo not drawn) [TCMDC-137935] | 3.82
51 | CC1(C)CC(NCCCCCCCOc2ccc(OCc3ccccc3)cc2)CC(C)(C)N1.Cl [TCMDC-138958] | 2.23
52 | CN1CCN(CCCNCc2cccc(Nc3nccc(Nc4ccc(Oc5ccccc5)cc4)n3)c2)CC1 [TCMDC-138616] | 4.77
53 | CCCN(CCC)CCCN(CCCN(CCC)CCC)c1cc(C)nc(Nc2ccc3cc(Br)ccc3c2)n1.Cl [TCMDC-138006] | 3.48

Row | Compound | Selectivity ratio
54 | CN(C)CCNCc1cccc(-c2ccc3c(Nc4ccc(Oc5ccccn5)cc4)ccnc3c2)c1 [TCMDC-138493] | 4.88
55 | C#CCOc1ccc2ccccc2c1CNCCCCCCNCc1c(OCC#C)ccc2ccccc12.CS(=O)(=O)O [TCMDC-137838] | 2.78
56 | CS(=O)(=O)O.FC(F)(F)COc1ccc2ccccc2c1CNCCCCCCNCc1c(OCC(F)(F)F)ccc2ccccc12 [TCMDC-137816] | 1.70
57 | CCn1c(-c2nonc2N)nc2c(-c3cccc(NC(=O)Nc4cccc(Cl)c4)c3)ncc(OCCCN)c21.O=C(O)C(F)(F)F [TCMDC-136193] | 68.35
58 | COc1ccc2ccccc2c1CCCCN1CCN(CC(c2ccc(F)cc2)N2CCC2)CC1.O=C(O)C(F)(F)F (stereo not drawn) [TCMDC-135867] | 0.74
59 | CN1CCN(CCCNCc2cccc(-c3ccc(CNCCc4ccccc4)cc3)c2)CC1 [TCMDC-140643] | 4.15
60 | CS(=O)(=O)O.FC(F)(F)COc1ccc(CNCCCCCCNCc2ccc(OCC(F)(F)F)c3ccccc23)c2ccccc12 [TCMDC-137853] | 3.93
61 | COc1ccc2c(OC)c(CNCCCCCCNCc3ccc4cc(OC)ccc4c3OC)ccc2c1.CS(=O)(=O)O [TCMDC-137953] | 2.12
62 | N#Cc1ccc(Cn2ccc3c4c(N)nc(N)nc4ccc32)cc1 [TCMDC-137820] | <0.0016
63 | COc1c(CCNCCCCNCCc2cc(Cl)c3ccccc3c2OC)cc(Cl)c2ccccc12.CS(=O)(=O)O [TCMDC-137869] | 5.33
64 | Clc1cccc(C23N=C(Nc4nc5ccccc5[nH]4)NC2(c2ccccc2)NC(Nc2nc4ccccc4[nH]2)=N3)c1 (stereo not drawn) [TCMDC-139089] | 284.85
65 | COc1c(CNCCCCCCNCc2cc(Cl)c3ccccc3c2OC)cc(Cl)c2ccccc12.CS(=O)(=O)O [TCMDC-137958] | 3.92
66 | CCn1c(-c2nonc2N)nc2c(-c3cccc(NC(=O)Nc4ccc(Cl)cc4)c3)ncc(OCCCN)c21.O=C(O)C(F)(F)F [TCMDC-136152] | 6.43
67 | CS(=O)(=O)O.FC(F)(F)COc1ccc(CCNCCCCNCCc2ccc(OCC(F)(F)F)c3ccccc23)c2ccccc12 [TCMDC-137282] | 8.19
68 | CCCOc1c(CCNCCCCNCCc2ccc3ccccc3c2OCCC)ccc2ccccc12.CS(=O)(=O)O [TCMDC-137950] | 2.69

Same assay, conditions: HepG2 Tox50 vs Pf FGAA IC50

Row | Compound | selectivity ratio (selectivity index)
69 | N#Cc1ccc(Cn2ccc3c4c(N)nc(N)nc4ccc32)cc1 [TCMDC-137820] | < 10
